Measured values from article PMC6162324.
Results are given in words; binding and its absence hold for the method and conditions named. In cells and extracts the contact can be indirect. Some entries that bind do so weakly or less than the wild type.

Protein sequences, listed by entry. Tags and fused reporters are not part of them.
UniProt Q96CV9: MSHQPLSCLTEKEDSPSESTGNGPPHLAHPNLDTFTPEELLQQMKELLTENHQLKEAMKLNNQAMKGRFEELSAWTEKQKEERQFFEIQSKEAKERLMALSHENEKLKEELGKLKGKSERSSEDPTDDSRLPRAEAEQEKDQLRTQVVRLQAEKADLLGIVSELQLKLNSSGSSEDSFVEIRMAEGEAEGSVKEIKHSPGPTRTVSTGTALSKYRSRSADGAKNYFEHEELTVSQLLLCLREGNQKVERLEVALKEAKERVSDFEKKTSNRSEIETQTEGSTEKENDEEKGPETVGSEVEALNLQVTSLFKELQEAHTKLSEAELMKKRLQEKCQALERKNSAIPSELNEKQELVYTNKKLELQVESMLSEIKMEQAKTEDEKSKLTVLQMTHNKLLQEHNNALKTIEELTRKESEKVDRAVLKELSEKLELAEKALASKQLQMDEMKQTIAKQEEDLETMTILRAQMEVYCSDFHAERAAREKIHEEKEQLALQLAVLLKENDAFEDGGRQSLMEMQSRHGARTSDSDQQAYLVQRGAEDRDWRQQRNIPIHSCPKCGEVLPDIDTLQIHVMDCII

Experiments:
Usp12-C48S (human) = Usp12-C48S (human) (UniProt O75317); test: co-IP; immunoprecipitation of Usp12 on protein G Dynabeads from lysates of transfected HEK cells (RIPA buffer), immunoblotting with anti-Usp12 and anti-p62
Usp12 (human) = Usp12 (human) (UniProt O75317); test: as above
Optineurin = Optineurin (UniProt Q96CV9); test: co-IP; immunoprecipitation of Optn on protein G Dynabeads from lysates of transfected HEK cells (RIPA buffer), immunoblotting with anti-Usp12 and anti-Optn

Row | binding (Usp12-C48S (human)) | binding (Usp12 (human)) | binding (Optineurin) | Substance
1 | binds | binds |  | RFP-p62 (from UniProt Q13501 1-440)
2 |  |  | binds | Usp12 (from UniProt O75317 1-370) (enzyme)
3 |  |  | binds | Usp12-C48S (from UniProt O75317 1-370) (enzyme)
